From doi:10.1101/414367
No constants are given. Whether binding was seen depends on the method and setting. In cells and extracts the contact can be indirect. Some binding calls cover weakened binding; strength is not graded here. Where a sequence is shown, tags or fusion partners need not be part of it.

Target: T1, Cex1-HA (S. cerevisiae) (UniProt Q12453)
T1 sequence: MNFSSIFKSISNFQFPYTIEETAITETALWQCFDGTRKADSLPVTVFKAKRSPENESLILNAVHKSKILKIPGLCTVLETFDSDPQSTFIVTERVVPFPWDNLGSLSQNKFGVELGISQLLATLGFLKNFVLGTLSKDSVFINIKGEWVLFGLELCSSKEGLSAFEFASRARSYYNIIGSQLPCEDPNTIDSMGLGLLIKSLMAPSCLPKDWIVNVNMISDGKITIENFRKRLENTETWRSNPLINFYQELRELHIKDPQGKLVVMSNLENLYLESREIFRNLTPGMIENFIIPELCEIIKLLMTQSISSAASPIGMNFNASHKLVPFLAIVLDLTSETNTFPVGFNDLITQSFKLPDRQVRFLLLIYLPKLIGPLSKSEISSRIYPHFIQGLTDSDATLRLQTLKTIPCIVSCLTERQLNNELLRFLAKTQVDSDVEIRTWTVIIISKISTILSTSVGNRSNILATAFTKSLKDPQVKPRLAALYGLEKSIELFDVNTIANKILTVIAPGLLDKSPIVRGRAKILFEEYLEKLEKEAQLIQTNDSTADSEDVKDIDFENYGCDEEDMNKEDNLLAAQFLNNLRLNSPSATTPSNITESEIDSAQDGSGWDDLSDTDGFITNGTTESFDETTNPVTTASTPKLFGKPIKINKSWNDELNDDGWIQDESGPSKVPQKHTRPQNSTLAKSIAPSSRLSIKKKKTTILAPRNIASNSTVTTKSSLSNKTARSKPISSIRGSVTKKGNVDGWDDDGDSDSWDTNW
Assay: co-IP

binding: binds
B1: Myc-tagged version of Sec27 (protein, UniProt P41811 1-889)
chain: MKLDIKKTFSNRSDRVKGIDFHPTEPWVLTTLYSGRVELWNYETQVEVRSIQVTETPVRAGKFIARKNWIIVGSDDFRIRVFNYNTGEKVVDFEAHPDYIRSIAVHPTKPYVLSGSDDLTVKLWNWENNWALEQTFEGHEHFVMCVAFNPKDPSTFASGCLDRTVKVWSLGQSTPNFTLTTGQERGVNYVDYYPLPDKPYMITASDDLTIKIWDYQTKSCVATLEGHMSNVSFAVFHPTLPIIISGSEDGTLKIWNSSTYKVEKTLNVGLERSWCIATHPTGRKNYIASGFDNGFTVLSLGNDEPTLSLDPVGKLVWSGGKNAAASDIFTAVIRGNEEVEQDEPLSLQTKELGSVDVFPQSLAHSPNGRFVTVVGDGEYVIYTALAWRNKAFGKCQDFVWGPDSNSYALIDETGQIKYYKNFKEVTSWSVPMHSAIDRLFSGALLGVKSDGFVYFFDWDNGTLVRRIDVNAKDVIWSDNGELVMIVNTNSNGDEASGYTLLFNKDAYLEAANNGNIDDSEGVDEAFDVLYELSESITSGKWVGDVFIFTTATNRLNYFVGGKTYNLAHYTKEMYLLGYLARDNKVYLADREVHVYGYEISLEVLEFQTLTLRGEIEEAIENVLPNVEGKDSLTKIARFLEGQEYYEEALNISPDQDQKFELALKVGQLTLARDLLTDESAEMKWRALGDASLQRFNFKLAVEAFTNAHDLESLFLLHSSFNNKEGLVTLAKDAERAGKFNLAFNAYWIAGDIQGAKDLLIKSQRFSEAAFLGSTYGLGDDAVNDIVTKWKENLILNGKNTVSERVCGAEGLPGSSSSGDAQPLIDLDSTPAPEQADENKEAEVEDSEFKESNSEAVEAEKKEEEAPQQQQSEQQPEQGEAVPEPVEEES
